Results on 9 compounds are retold here after PubChem BioAssay AID328 (DTP/NCI, 2004).

The structures appear in SMILES notation. The list does not hold the whole screen: it is rich in T/C values a quarter to a half above the control, in often repeated tests (any T/C) and in doses without a T/C. Other doses and runs of a compound stand elsewhere. T/C is the treated group as % of the vehicle group. Some entries give survivors of the animals treated and no T/C: the source holds a T/C of zero for them, seemingly a mark for toxic or unscored doses. Some doses without a T/C left all or most animals alive at the check, yet need not have been tolerated: the source hardly ever lists a survival T/C far under the control, and the zero likely stands for such cases as well. Counts of survivors are from the toxicity check (mostly the fifth day) where no day follows; animals may have died later. Schedule codes are those of the source, read here as Q, the interval in days (D) or hours (H), X, the number of doses. Where survival is the endpoint, this PubChem deposit counts one and a half times the control or more as active, and values a quarter to a half above the control carry no call in these data; other NCI protocols may use other cut-offs. Some T/C values are followed by the survivors on the day toxicity was checked, most often the fifth; where none is given, no animal had died by that day.

The assay has as its system BDF1 mice, P388 leukemia ip, median survival T/C. The experiment in a line: NCI In Vivo Anticancer Drug Screen. Data for tumor model P388 Leukemia (intraperitoneal) in B6D2F1 (BDF1) mice. Conditions: T/C endpoint: median survival time, higher T/C = longer survival. Put shortly: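 Reported as T/C, where T is the survival measurement in dosed animals and C the same measurement in vehicle controls.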

Where [1] appears, read: dose: 200.0 mg/kg/injection, schedule: Q01DX009 (ip), vehicle: saline.
[2] abbreviates: dose: 6.0 mg/kg/injection, schedule: Q01DX009 (ip), vehicle: saline with Tween-80.

In the case of `N=C(N)c1ccc(N=C(N)Nc2ccc(C(=N)N)cc2)cc1`, the survivor count by setting is: (dose: 100.0 mg/kg/injection, schedule: Q01DX009 (ip), vehicle: saline) 2 of 6; under setting [1], 0 of 6.

`O=C(COc1ccc(Cl)cc1Cl)Oc1c(Cl)c(Cl)c(Cl)c(Cl)c1Cl`: the survivor count (dose: 200.0 mg/kg/injection, schedule: Q04DX003 (ip), vehicle: saline with Tween-80) was 6 of 6.

With `CCN(C(=S)Nc1cccc(OC)c1)c1ccccc1`, the survivor count (dose: 400.0 mg/kg/injection, schedule: Q01DX009 (ip), vehicle: saline with Tween-80) is listed as 2 of 6.

Turning to `C(COCCOCC1CO1)OCCOCC1CO1` (centres undefined), the T/C (dose: 100.0 mg/kg/injection, schedule: Q01DX010 (ip), vehicle: saline) was 127 % of control. In addition, the survivor count (dose: 800.0 mg/kg/injection, schedule: Q01DX010 (ip), vehicle: saline) was 2 of 6.

Consider `O=C1c2ccccc2C(=O)c2c(NCCN3CCNCC3)ccc(NCCN3CCNCC3)c21`, for which the T/C was 125 % of control (dose: 6.25 mg/kg/injection, schedule: Q01DX009 (ip), vehicle: water); 127 % of control (dose: 12.5 mg/kg/injection, schedule: Q01DX009 (ip), vehicle: water); 139 % of control (dose: 25.0 mg/kg/injection, schedule: Q01DX009 (ip), vehicle: water); 145 % of control (dose: 50.0 mg/kg/injection, schedule: Q01DX009 (ip), vehicle: water). Moreover, the survivor count (dose: 100.0 mg/kg/injection, schedule: Q01DX009 (ip), vehicle: water) was 2 of 6.

On to `COc1cc(N(CCCl)CCCl)c(OC)cc1/C=N\Nc1nncn1N`, for which the survivor count (dose: 50.0 mg/kg/injection, schedule: Q04DX003 (ip), vehicle: saline sonified) is 5 of 6 and the survivor count (dose: 100.0 mg/kg/injection, schedule: Q04DX003 (ip), vehicle: saline sonified) is 2 of 6.

As to `CS(=O)(=O)OCCF`, the survivor count under setting [2] is reported as 4 of 6. Besides, the T/C (dose: 6.0 mg/kg/injection, schedule: Q04DX003 (ip), vehicle: saline) was 136 % of control [4 of 6 alive].

For the compound `O=CNNC(=O)c1ccccn1`, the survivor count runs as follows: under setting [1], 6 of 6; (dose: 400.0 mg/kg/injection, schedule: Q04DX003 (ip), vehicle: saline with Tween-80) 0 of 6.

On to `CC1(C)N=C(N)N=C(N)N1c1ccc(CCc2ccccc2)c(Cl)c1`, for which the T/C was 136 % of control under setting [2] and 136 % of control (dose: 9.0 mg/kg/injection, schedule: Q01DX009 (ip), vehicle: saline with Tween-80).
